Measurements: PubChem BioAssay AID504467 (National Center for Advancing Translational Sciences (NCATS), 2011)
Hit rate of the full screen: of about 330,000 compounds, about 7,700 (2.3%) were called active. Inconclusive means that the source gave no clear call. Such entries were picked first, then a sample of the others. Calls follow the shape of the dose curve; as a rule, active = well fitted inhibition curve with a large enough effect; inconclusive = small, poorly fitted or top-dose-only effect, or effect the other way; inactive = flat fitted curve, though single readings scatter. Potencies beside an inconclusive call are fits to weak or partial responses and may not hold up.
Potency is read from the fitted curve at half-maximal effect.

Assay: qHTS screen for small molecules that inhibit ELG1-dependent DNA repair in human embryonic kidney (HEK293T) cells expressing luciferase-tagged ELG1; also: nearly all actives have a fitted effect of over 55% in size
Conditions: HEK293T ELG1-luciferase reporter, luminescence, 16 h, DNA damage induced by 5-fluorouridine; series mostly up to 46.1 µM
Summary of the method: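 In this reporter screen, reduction of luminescence relative to DMSO vehicle indicated activity. Compounds and 5-fluorouridine were added together to 2,000 cells per well, incubated for 16 hr at 37 °C, then developed with ONE-Glo.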
With CSc1nnc(NC(=O)c2nc(S(=O)(=O)Cc3ccc(C)cc3)ncc2Cl)s1 the Potency was inconclusive: 29.1 µM [inhibitor, single point]. In the case of COc1ccc(S(=O)(=O)N2CCCCCC2)cc1N(C)S(=O)(=O)c1ccccc1, the Potency is reported as inconclusive: 29.1 µM [inhibitor, single point]. In the case of Cc1cccc(-c2nc(CS(=O)CC(=O)NCCc3ccc(Cl)cc3)c(C)o2)c1 (centres undefined), the Potency is reported as inconclusive: 23.1 µM [inhibitor, single point]. For O=C(NCc1cccnc1)c1ccc(COc2ccc(Cl)cc2Cl)o1, the Potency was inconclusive: 0.231 µM [activator, full curve, poor fit]. For CCCc1nc(NCc2ccco2)c(C#N)c2c1COC(C)(C)C2, the Potency was inconclusive: 35.5 µM [activator, partial curve, poor fit]. In the case of N#Cc1ccc(OCC(=O)NNC(=S)NC2CCCCC2)cc1, the Potency is reported as “inactive”. For O=C(CO)N/N=C/c1cccc(Cl)c1Cl, the Potency was inconclusive: 13 µM [activator, partial curve, poor fit]. For Cc1ccc(C)c(N2CCN(C(=O)c3csc4ccccc34)CC2)c1, the Potency was “inactive”. For CCOc1ncccc1C(=O)OCC(=O)c1c[nH]c2ccccc12, the Potency was “inactive”. In the case of COc1ccccc1-c1cc(C(F)(F)F)nc(S(=O)(=O)CCCC(=O)NC(C)C)n1, the Potency is reported as inconclusive: 23.1 µM [inhibitor, partial curve, poor fit]. For O=C(c1cn(-c2ccccc2)nc1-c1ccccc1)N1CCN(c2ccccn2)CC1, the Potency was inconclusive: 23.1 µM [inhibitor, single point]. In the case of CCOc1cc(C(=S)N2CCC(O)CC2)ccc1OS(=O)(=O)c1ccc(Br)cc1, the Potency is reported as inconclusive: 29.1 µM [inhibitor, partial curve, poor fit]. With CN1CCCN(C(=O)CNC(=O)c2ccccc2F)CC1 the Potency was inconclusive: 7.3 µM [activator, single point]. For O=C(O)C1CCC(Cn2c(SCc3cc(=O)n4ccccc4n3)nc3ccsc3c2=O)CC1 (centres undefined), the Potency was “inactive”. With CN(C)C(=O)c1cc(C(=O)Cc2ccccc2)c[nH]1 the Potency was “inactive”. With CCOc1ccc(/C=N/Nc2nc(C)cs2)c(O)c1 the Potency was inconclusive: 5.17 µM [activator, full curve]. With O=C(N/N=C/c1cccnc1)c1ccccc1OCc1ccc(Br)cc1 the Potency was active: 11.6 µM. With O=C(Nc1nc(-c2ccccn2)cs1)c1cccc(S(=O)(=O)N2CCOCC2)c1 the Potency was “inactive”. For CCOc1ccc(/C(O)=C2\C(=O)C(=O)N(c3cc(C)on3)C2c2ccccc2OC)cc1 (centres undefined), the Potency was inconclusive: 20.6 µM [inhibitor, single point]. In the case of CCCS(=O)(=O)c1c(S(=O)(=O)CCC)c2ccc(C(N)=O)cn2c1C(=O)c1ccc(OC)cc1, the Potency is reported as “inactive”. With CCc1ccccc1NC(=O)CSc1nc2n[nH]c(C)c2c(=N)n1-c1cccc(OC)c1 the Potency was inconclusive: 16.4 µM [inhibitor, partial curve]. With CCn1c(C)nc2cc(C(=O)NNS(=O)(=O)c3ccc(C)c(C)c3)ccc21 the Potency was “inactive”. With CCn1nnc2cc(C(=O)Nc3ccc(C(=O)OC(C)C)cc3)ccc21 the Potency was inconclusive: 0.58 µM [inhibitor, partial curve, poor fit]. For Cc1ccc(/C=C/C(=O)Nc2ccc(N(C)C)cc2)o1, the Potency was inconclusive: 9.2 µM [activator, partial curve]. For O=C(C[C@H]1C[C@H](C(=O)N2CCOCC2)[C@@]2(CCC3CCCC3)c3[nH]c4ccc(Cl)cc4c3CCN2C1=O)NCCN1CCOCC1, the Potency was “inactive”. With CN(C)c1ccc(NC(=O)Cc2ccccc2)c2ccccc12 the Potency was inconclusive: 20.6 µM [activator, partial curve, poor fit]. In the case of CCCCc1ccc(NC(=O)CSc2nc(=O)n(CCN3CCOCC3)c3c2CCC3)cc1, the Potency is reported as “inactive”. In the case of CCN1CCN(c2ccc(S(=O)(=O)N3CCCCC3)cc2NC(=O)COc2ccc(F)cc2Cl)CC1, the Potency is reported as “inactive”. In the case of C[C@](N)(Cc1ccc(O)c(O)c1)C(=O)O, the Potency is reported as “inactive”. In the case of CCOC(=O)Nc1ccc(C(N)=O)cc1, the Potency is reported as inconclusive: 25.9 µM [activator, single point]. In the case of O=C(NCC(c1ccco1)N1CCCCC1)c1ccc([N+](=O)[O-])s1 (centres undefined), the Potency is reported as inconclusive: 11.6 µM [inhibitor, partial curve]. In the case of Cc1noc(C)c1S(=O)(=O)N(CC(=O)Nc1ccc2c(c1)OCCO2)c1ccc(C(C)C)cc1, the Potency is reported as inconclusive: 18.4 µM [inhibitor, single point]. In the case of CCc1noc(C)c1C(=O)Nc1ccccc1C(C)(C)C, the Potency is reported as “inactive”. With COc1ccc(NC(=O)NNC(=O)C(C)Oc2ccc3ccccc3c2)cc1 (centres undefined) the Potency was “inactive”. With CCc1ccc(O)c(N=Cc2cccc(C)c2O)c1 the Potency was “inactive”. In the case of O=C(NCc1ccc(F)cc1)C1(S(=O)(=O)c2ccc(Cl)cc2)CC1, the Potency is reported as inconclusive: 0.206 µM [inhibitor, partial curve, poor fit]. With N#CC(C(=O)OC1CCCCC1)c1nc2ccccc2nc1N1CCCCC1 (centres undefined) the Potency was “inactive”. In the case of O=C(Nc1ccncc1)C1CCN(S(=O)(=O)c2cccc(C(F)(F)F)c2)CC1, the Potency is reported as “inactive”. For O=C(NCc1ccco1)c1cccc(S(=O)(=O)N2CCCC2)c1, the Potency was “inactive”. With COc1ccc(Cl)cc1NC(=O)Cn1nnc(C(=O)NCc2ccc3c(c2)OCO3)c1N the Potency was “inactive”. For CCN(CC(=O)NC1CCS(=O)(=O)C1)S(=O)(=O)c1cc(Br)ccc1Br (centres undefined), the Potency was “inactive”. In the case of CN1CCN(c2ccc(-c3ccc4ccccc4n3)cc2)CC1, the Potency is reported as inconclusive: 0.206 µM [activator, partial curve]. In the case of CCCOc1ccc(NC2=CC(=O)CC(C)(C)C2)cc1, the Potency is reported as inconclusive: 13 µM [activator, partial curve, poor fit]. With CCN1CCN(C(=S)NC(=O)c2cccc(Br)c2)CC1 the Potency was “inactive”. In the case of Cc1cc(Br)ccc1SCC(=O)OCC(=O)Nc1ncc(C(F)(F)F)cc1Cl, the Potency is reported as “inactive”. In the case of Cc1cccc(Nc2nc(NC(C)C)nc(Oc3ccc(=O)n(C)n3)n2)c1, the Potency is reported as inconclusive: 23.1 µM [activator, single point]. In the case of CC(C)(C)NS(=O)(=O)c1ccc2nc(NC(=O)Cc3cccs3)sc2c1, the Potency is reported as “inactive”. With CCn1c(O)c(N=NC(=O)c2ccc(CSc3nncn3C)cc2)c2ccccc21 the Potency was inconclusive: 23.1 µM [inhibitor, single point]. For O=C(CSc1nc(-c2ccccc2)c(-c2ccccc2)[nH]1)Nc1nccs1, the Potency was “inactive”. For CC(NC(=O)/C(C#N)=C/c1ccco1)c1ccccc1 (centres undefined), the Potency was “inactive”. In the case of CCn1c(SCC(=O)NC)nnc1C(C)C, the Potency is reported as inconclusive: 29.1 µM [activator, partial curve, poor fit]. For COC(=O)CSc1nc2c(c(-c3ccc(O)cc3)c1C#N)CCCC2, the Potency was “inactive”. In the case of O=C(CN1CCN(Cc2ccccc2F)CC1)Nc1ccccc1Cl, the Potency is reported as active: 10.3 µM. For CS(=O)(=O)N1CCC(Oc2cccc(C(=O)NCCCOc3cccnc3)c2)CC1, the Potency was inconclusive: 29.1 µM [inhibitor, single point]. With CCOc1ccc2nc(NC(=O)c3ccoc3C)sc2c1 the Potency was inconclusive: 0.651 µM [activator, partial curve, poor fit]. For C1=Nc2c(Nc3ccccc3)ncnc2Oc2ccccc21, the Potency was inconclusive: 25.9 µM [inhibitor, partial curve, poor fit]. For O=S(=O)(NN1CCOCC1)c1ccc(Br)s1, the Potency was inconclusive: 25.9 µM [inhibitor, single point]. With CN(CCC#N)C(=O)COC(=O)c1c2c(nc3ccccc13)/C(=C/c1ccco1)CC2 the Potency was inconclusive: 29.1 µM [inhibitor, single point]. With Clc1ccc(OCc2cn3ccccc3n2)c2ncccc12 the Potency was inconclusive: 10.3 µM [activator, partial curve]. With Cc1sc2nc(CSc3nnnn3-c3ccc(Cl)cc3)[nH]c(=O)c2c1C the Potency was inconclusive: 32.6 µM [inhibitor, single point]. For COc1ccccc1C(=O)N1CCN(Cc2c[nH]c3ccccc23)CC1, the Potency was inconclusive: 7.3 µM [inhibitor, partial curve]. With O=C(Nc1ccc(NC(=S)NC(=O)c2ccccc2F)cc1)c1cccs1 the Potency was inconclusive: 29.1 µM [inhibitor, single point]. With CC1C/C(=N/NC(=O)c2cccs2)CC(C)(C)C1 (centres undefined) the Potency was inconclusive: 29.1 µM [activator, single point]. For O=C(c1cc(F)c(F)c(F)c1F)N1CCN(C(=O)C2CCCO2)CC1 (centres undefined), the Potency was “inactive”. For CCOC(=O)C(Cc1ccc(Cl)cc1Cl)c1ccno1 (centres undefined), the Potency was “inactive”. For O=C(Nc1nccs1)c1cn(-c2ccccc2)nc1-c1ccncc1, the Potency was inconclusive: 4.61 µM [inhibitor, full curve]. For O=C(C[n+]1cccc(C(=O)N/N=C/c2cccc([N+](=O)[O-])c2)c1)c1ccccc1, the Potency was “inactive”. With COc1ccc([N+](=O)[O-])cc1NC(=O)CSCc1ccc(Br)cc1 the Potency was inconclusive: 5.8 µM [inhibitor, partial curve, poor fit]. In the case of CNC(=O)c1ccc(Nc2nnc(-c3ccc(C)c(S(=O)(=O)NCC4CCCO4)c3)c3ccccc23)cc1 (centres undefined), the Potency is reported as inconclusive: 25.9 µM [inhibitor, single point]. With COc1ccccc1N1CCN(C(=O)CSc2nnc3n2C(C)(C)Cc2ccccc2-3)CC1 the Potency was active: 9.2 µM. For CCN(C(=O)CSc1ccccn1)C1CCCCC1, the Potency was “inactive”. With Cc1ccc(C)c(NS(=O)(=O)c2ccc(OCC(=O)N3CCOCC3)cc2)c1 the Potency was “inactive”. For COC(=O)c1c(-c2ccsc2)sc2ccc(-c3cc(OC)c(OC)c(OC)c3)cc12, the Potency was active: 9.2 µM. In the case of CNC(=S)Nc1ccc2nc(C)oc2c1, the Potency is reported as inconclusive: 20.6 µM [activator, partial curve, poor fit].
